Laboratory results taken from patent US20060069024A1 (PURDUE RESEARCH FOUNDATION, published 2006).
No constants are given. Whether binding was seen depends on the method and setting. Some binding calls cover weakened binding; strength is not graded here. Tags and fused reporters may be left off the sequences shown.

Experiments:
[1] = biological target: T1, PHO36MH (PHO36 with c-myc epitope and hexa-His tag fused in-frame at the C-terminus) (Saccharomyces cerevisiae) (UniProt Q12442); experiment: osmotin-Sepharose 4B pull-down (summary of the result)
T1 sequence (looked up): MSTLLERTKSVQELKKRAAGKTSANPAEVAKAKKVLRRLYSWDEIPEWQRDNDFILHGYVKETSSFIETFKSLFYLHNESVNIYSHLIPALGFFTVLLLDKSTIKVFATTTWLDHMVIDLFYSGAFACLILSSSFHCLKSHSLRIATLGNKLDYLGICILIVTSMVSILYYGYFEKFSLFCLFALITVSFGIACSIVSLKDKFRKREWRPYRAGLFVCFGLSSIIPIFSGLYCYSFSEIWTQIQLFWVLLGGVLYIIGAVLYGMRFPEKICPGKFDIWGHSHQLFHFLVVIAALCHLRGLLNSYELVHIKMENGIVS

[2] = biological target: T1, PHO36MH (PHO36 with c-myc epitope and hexa-His tag fused in-frame at the C-terminus) (Saccharomyces cerevisiae); experiment: 35S-osmotin binding to yeast spheroplasts, scintillation counting
[3] = biological target: T1, PHO36MH (PHO36 with c-myc epitope and hexa-His tag fused in-frame at the C-terminus) (Saccharomyces cerevisiae); experiment: osmotin-Sepharose 4B pull-down and 35S-osmotin binding to spheroplasts
[4] = biological target: T1, PHO36MH (PHO36 with c-myc epitope and hexa-His tag fused in-frame at the C-terminus) (Saccharomyces cerevisiae); experiment: pull-down of the PHO36MH membrane fraction with osmotin-Sepharose 4B, anti-myc immunoblot

binding [1]: binds
binding [2]: binds
binding [3]: binds
binding [4]: binds
B1: osmotin (ligand)
chain: ATIEVRNNCPYTVWAASTPIGGGRRLDRGQTWVINAPRGTKMARVWGRTNCNFNAAGRGTCQTGDCGGVLQCTGWGKPPNTLAEYALDQFSGLDFWDISLVDGFNIPMTFAPTNPSGGKCHAIHCTANINGECPRELRVPGGCNNPCTTFGGQQYCCTQGPCGPTFFSKFFKQRCPDAYSYPQDDPTSTFTCPGGSTNYRVIFCPNGQAHPNFPLEMPGSDEVAK
notes: Purified osmotin (26 kDa globular protein, mostly a monomer in solution); also called tobacco PR-5 protein; 35S-osmotin
